The source of these data is the supplement of paper PMC8728848.

The list shows a part of the results.

Common to all, as to experiment: glycan array binding signal (z-score within array); higher = stronger binding
What all share (conditions): glycan notation: IUPAC condensed, linker removed

For one assay, the target named is GlcNAc(b1-3)Man. In a few lines: (§1)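 Negative Z-scores can be read as non-binding. The Z-score is calculated within each array and then averaged across arrays of one protein sequence at different concentrations or buffers and across linkers. Arrays, 3228 in all, were curated from the Consortium for Functional Glycomics database and kept only where the protein sequence was available.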

Assay [1] deals with GlcNAc(b1-3)[GlcNAc(b1-4)][GlcNAc(b1-6)]GlcNAc. In a few lines: as §1
In assay [2] the target is GlcNAc(b1-3)[GlcNAc(b1-6)]Gal(b1-4)GlcNAc. In a few lines: as §1
For assay [3], the target named is GlcNAc(b1-3)[GlcNAc(b1-6)]GalNAc. In a few lines:
as §1

Assay [4] deals with GlcNAc(b1-4)Gal(b1-4)GlcNAc. In short, it runs like this:
as §1

For the next assay, the target named is GlcNAc(b1-4)GlcNAc. In short, it runs like this:
as §1

Assay [5] has as its target GlcNAc(b1-4)GlcNAc(b1-4)GlcNAc. In a few lines: as §1
For assay [6], the target named is GlcNAc(b1-4)GlcNAc(b1-4)GlcNAc(b1-4)GlcNAc(b1-4)GlcNAc. In a few lines:
as §1

Assay [7] addresses GlcNAc(b1-4)GlcNAc(b1-4)GlcNAc(b1-4)GlcNAc(b1-4)GlcNAc(b1-4)GlcNAc. In a few lines: as §1
The target in assay [8] is GlcNAc(b1-4)[GlcNAc(b1-6)]GalNAc. In short, it runs like this: as §1
For assay [9], the target named is GlcNAc(b1-6)Gal(b1-4)GlcNAc. In a few lines:
as §1

The target in a further assay is GlcNAc(b1-6)GalNAc. In a few lines:
as §1

The target in assay [10] is GlcNAc6S(b1-3)Gal(b1-4)GlcNAc. In short, it runs like this: as §1
The target of the next assay is Kdn(a2-3)Gal(b1-3)GalNAc. In short, it runs like this:
as §1

The next assay concerns the target Kdn(a2-3)Gal(b1-3)GlcNAc. In short, it runs like this: as §1
For a further assay, the target named is Kdn(a2-3)Gal(b1-4)Glc. In a few lines:
as §1

A further assay has as its target Kdn(a2-3)Gal(b1-4)GlcNAc. In a few lines: as §1
In assay [11] the target is Kdn(a2-3)Gal(b1-4)[Fuc(a1-3)]GlcNAc. In a few lines:
as §1

In a further assay the target is Kdn(a2-6)Gal(b1-4)GlcNAc. In short, it runs like this: as §1
Assay [12] addresses Man(a1-2)Man(a1-2)Man(a1-3)Man. In short, it runs like this:
as §1

Assay [13] addresses Man(a1-2)Man(a1-2)Man(a1-6)[Man(a1-3)]Man. In short, it runs like this: as §1
Another assay addresses Man(a1-2)Man(a1-3)Man. In a few lines: as §1
Assay [14] deals with Man(a1-2)Man(a1-3)[Man(a1-2)Man(a1-6)]Man. In a few lines:
as §1

B1: FimA-N2 (Actinomyces oris) (protein)
chain: MHHHHHHSSGVDLGTENLYFQSNAWIYDVNVYPKNEAIDVDKTIQAQKLNGYGVGSLIKFPVESTAPTLDAKSFYKYFQLKDTLDERLSEVTATDVSLEGTPLQPTDYKVETKQQTVTVTFTAEGLKKIKAAPGKKVSAVFQGKVTKAGNGAITNRAQVISDTLYAEQPPTPETPPTDPENPPTSDEVISRWGDLSIKKVDTHQQGQTKA
As for B1, the “glycan array binding signal (z-score)” value with GlcNAc(b1-3)Man is -0.206; in assay [1], 0.765; in assay [2] it was -0.712; in assay [3], -0.322; in [4] it was 0.652; in the assay with GlcNAc(b1-4)GlcNAc it was 0.476. The “glycan array binding signal (z-score)” value in assay [5] was -1.1; in assay [6], 0.514; in assay [7], 0.47; in assay [8], -0.713; in assay [9] it was -0.782; in the assay with GlcNAc(b1-6)GalNAc, -0.16. Besides, the “glycan array binding signal (z-score)” value was -0.705 in [10]; -0.631 with Kdn(a2-3)Gal(b1-3)GalNAc; -1.43 with Kdn(a2-3)Gal(b1-3)GlcNAc; -0.37 with Kdn(a2-3)Gal(b1-4)Glc; -1.45 with Kdn(a2-3)Gal(b1-4)GlcNAc; 1.21 in assay [11]. Also, the “glycan array binding signal (z-score)” value in the assay with Kdn(a2-6)Gal(b1-4)GlcNAc was -0.141; in assay [12], -0.447; in [13] it was 0.067; with Man(a1-2)Man(a1-3)Man, 0.075; in assay [14] it was -1.01.
